Reference: the supplement of paper PMC10849652
The list shows a part of the results.

Sequences of proteins named here, by UniProt entry; tags and fusion partners are left off. A change or cut given only in a name is not applied to a line headed by its entry.
UniProt Q86WR7: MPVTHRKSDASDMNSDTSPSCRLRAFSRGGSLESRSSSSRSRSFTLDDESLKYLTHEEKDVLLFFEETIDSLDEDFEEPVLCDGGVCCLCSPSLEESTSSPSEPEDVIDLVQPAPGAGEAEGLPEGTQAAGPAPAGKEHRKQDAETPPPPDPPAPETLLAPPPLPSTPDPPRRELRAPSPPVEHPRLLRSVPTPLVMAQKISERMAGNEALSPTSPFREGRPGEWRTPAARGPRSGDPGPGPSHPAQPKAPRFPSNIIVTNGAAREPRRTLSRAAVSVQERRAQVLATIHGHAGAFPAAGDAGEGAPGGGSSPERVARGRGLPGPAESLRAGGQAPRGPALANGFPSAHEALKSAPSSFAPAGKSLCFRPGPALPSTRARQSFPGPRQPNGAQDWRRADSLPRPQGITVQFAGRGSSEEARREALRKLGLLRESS
UniProt P50897: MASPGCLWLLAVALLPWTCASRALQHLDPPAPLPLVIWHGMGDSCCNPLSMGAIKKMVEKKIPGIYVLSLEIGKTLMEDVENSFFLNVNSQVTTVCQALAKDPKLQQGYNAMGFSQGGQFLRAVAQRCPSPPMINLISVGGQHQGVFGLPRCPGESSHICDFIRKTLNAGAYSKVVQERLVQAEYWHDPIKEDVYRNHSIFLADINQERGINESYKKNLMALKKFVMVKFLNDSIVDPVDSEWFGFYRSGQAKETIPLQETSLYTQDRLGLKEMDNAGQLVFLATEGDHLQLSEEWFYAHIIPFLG
UniProt Q9NR22, whole entry, looked up: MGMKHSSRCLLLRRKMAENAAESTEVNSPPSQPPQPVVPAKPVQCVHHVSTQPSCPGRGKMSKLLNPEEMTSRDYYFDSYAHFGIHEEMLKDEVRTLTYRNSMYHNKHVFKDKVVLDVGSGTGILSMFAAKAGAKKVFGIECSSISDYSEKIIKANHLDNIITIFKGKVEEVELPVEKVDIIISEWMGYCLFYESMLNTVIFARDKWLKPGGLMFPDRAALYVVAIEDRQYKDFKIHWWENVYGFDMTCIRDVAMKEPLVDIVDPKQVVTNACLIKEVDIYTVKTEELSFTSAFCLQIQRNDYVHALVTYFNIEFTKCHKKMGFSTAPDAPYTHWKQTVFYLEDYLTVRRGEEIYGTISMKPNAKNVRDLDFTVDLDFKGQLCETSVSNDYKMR
UniProt O75569: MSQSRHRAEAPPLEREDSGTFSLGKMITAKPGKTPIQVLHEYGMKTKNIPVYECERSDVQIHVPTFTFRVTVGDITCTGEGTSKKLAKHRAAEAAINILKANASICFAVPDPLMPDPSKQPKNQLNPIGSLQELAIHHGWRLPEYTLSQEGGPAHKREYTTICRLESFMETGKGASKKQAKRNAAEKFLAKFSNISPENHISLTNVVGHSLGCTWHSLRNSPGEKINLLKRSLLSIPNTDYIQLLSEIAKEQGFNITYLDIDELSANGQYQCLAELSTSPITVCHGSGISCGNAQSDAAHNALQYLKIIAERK
UniProt Q99873, whole entry, looked up: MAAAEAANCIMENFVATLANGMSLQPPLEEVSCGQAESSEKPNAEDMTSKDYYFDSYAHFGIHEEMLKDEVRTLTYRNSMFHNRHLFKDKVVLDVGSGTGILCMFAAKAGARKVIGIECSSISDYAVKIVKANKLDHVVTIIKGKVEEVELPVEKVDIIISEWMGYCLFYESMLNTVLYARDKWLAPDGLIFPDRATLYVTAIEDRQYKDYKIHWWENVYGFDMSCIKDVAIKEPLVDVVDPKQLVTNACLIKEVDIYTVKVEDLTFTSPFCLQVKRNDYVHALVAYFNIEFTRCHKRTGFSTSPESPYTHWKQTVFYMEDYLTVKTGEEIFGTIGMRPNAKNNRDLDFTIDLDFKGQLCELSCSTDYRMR
UniProt O75688: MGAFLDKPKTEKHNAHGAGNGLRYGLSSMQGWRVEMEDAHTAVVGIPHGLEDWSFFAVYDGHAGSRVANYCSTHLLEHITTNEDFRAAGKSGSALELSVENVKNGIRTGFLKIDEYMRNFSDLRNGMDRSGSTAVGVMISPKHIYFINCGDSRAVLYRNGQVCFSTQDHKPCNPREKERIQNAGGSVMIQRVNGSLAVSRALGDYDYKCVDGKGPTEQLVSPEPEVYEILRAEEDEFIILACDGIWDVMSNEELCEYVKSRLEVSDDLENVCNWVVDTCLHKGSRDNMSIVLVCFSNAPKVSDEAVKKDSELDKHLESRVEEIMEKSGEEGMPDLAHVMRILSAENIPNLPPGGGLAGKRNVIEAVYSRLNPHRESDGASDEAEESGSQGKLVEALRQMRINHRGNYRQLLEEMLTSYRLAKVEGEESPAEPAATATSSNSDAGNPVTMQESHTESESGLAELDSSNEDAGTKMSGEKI
UniProt Q9H875: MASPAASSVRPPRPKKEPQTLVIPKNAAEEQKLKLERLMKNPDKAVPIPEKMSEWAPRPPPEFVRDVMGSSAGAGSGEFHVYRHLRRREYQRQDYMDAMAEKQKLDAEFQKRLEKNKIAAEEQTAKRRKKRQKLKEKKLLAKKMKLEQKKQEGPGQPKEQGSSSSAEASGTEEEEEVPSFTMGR
UniProt Q9NVM4: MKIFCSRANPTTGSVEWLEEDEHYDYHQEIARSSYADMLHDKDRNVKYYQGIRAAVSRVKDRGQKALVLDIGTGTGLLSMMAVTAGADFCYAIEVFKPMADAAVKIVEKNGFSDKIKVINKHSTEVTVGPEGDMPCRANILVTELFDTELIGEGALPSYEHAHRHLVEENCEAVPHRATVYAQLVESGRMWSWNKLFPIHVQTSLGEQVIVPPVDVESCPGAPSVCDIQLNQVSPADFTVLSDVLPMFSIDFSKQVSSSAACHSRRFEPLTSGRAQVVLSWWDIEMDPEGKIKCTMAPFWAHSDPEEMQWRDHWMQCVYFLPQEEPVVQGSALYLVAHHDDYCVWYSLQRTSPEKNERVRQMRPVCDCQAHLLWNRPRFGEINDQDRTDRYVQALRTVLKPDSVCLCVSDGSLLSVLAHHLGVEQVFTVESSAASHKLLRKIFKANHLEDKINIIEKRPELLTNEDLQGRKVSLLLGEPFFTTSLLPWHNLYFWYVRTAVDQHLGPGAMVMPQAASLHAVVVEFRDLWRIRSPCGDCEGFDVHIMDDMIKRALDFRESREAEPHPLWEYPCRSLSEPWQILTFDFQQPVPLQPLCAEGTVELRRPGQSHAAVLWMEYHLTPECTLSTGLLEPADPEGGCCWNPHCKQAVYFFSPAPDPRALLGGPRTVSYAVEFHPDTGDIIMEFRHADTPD
UniProt Q9UMR5: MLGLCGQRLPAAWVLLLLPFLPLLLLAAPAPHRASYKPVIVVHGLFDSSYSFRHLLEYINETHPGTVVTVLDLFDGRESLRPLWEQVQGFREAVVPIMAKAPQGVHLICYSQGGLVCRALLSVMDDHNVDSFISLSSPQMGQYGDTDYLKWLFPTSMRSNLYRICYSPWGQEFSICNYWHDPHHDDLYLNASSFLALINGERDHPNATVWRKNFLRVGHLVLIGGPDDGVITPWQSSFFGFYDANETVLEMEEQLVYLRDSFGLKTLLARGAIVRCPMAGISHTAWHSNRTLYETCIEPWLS
UniProt Q06830: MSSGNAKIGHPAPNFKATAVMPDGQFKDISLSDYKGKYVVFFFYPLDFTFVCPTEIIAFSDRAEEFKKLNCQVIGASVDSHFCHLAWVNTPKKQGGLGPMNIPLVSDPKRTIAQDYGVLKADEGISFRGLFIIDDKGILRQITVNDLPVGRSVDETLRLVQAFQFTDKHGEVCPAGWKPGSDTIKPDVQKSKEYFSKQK
UniProt P32119: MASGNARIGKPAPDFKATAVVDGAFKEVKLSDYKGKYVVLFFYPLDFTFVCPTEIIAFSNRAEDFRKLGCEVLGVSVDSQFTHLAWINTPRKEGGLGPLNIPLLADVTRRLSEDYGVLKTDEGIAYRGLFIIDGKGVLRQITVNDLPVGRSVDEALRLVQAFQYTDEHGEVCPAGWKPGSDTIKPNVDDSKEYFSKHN
UniProt Q14738, whole entry, looked up: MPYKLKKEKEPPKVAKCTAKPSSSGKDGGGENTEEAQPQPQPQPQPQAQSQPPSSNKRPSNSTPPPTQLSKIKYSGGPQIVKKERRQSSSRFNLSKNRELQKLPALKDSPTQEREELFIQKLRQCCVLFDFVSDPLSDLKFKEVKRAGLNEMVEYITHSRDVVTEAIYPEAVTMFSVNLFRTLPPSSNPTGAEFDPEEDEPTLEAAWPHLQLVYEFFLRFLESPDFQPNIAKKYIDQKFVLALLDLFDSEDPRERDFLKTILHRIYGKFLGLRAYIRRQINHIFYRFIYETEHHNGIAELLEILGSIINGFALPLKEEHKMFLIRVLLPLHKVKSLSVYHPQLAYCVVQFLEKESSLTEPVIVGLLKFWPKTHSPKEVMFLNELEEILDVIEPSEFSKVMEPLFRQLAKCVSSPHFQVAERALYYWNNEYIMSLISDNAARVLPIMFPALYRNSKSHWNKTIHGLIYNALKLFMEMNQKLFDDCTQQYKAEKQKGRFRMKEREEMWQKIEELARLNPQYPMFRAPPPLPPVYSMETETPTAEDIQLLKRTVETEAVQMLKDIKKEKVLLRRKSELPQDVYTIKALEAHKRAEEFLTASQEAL
UniProt P48147: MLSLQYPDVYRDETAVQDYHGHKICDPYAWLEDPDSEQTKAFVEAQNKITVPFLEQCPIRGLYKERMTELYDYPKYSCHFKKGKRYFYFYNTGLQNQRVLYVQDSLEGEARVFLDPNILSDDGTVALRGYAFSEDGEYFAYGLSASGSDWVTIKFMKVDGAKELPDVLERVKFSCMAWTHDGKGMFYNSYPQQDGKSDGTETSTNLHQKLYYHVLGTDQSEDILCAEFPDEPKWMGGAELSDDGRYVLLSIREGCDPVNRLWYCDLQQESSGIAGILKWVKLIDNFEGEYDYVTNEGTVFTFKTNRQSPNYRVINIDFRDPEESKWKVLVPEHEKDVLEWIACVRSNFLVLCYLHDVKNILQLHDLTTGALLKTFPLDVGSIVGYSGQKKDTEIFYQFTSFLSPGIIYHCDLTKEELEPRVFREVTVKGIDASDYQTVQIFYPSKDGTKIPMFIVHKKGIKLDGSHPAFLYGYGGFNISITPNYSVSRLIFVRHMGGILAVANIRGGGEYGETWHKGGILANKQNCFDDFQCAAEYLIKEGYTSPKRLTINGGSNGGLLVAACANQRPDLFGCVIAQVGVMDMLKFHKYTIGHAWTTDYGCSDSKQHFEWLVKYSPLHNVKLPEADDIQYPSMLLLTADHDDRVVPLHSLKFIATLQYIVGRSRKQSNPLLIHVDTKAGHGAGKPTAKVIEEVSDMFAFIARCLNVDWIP
UniProt P63151: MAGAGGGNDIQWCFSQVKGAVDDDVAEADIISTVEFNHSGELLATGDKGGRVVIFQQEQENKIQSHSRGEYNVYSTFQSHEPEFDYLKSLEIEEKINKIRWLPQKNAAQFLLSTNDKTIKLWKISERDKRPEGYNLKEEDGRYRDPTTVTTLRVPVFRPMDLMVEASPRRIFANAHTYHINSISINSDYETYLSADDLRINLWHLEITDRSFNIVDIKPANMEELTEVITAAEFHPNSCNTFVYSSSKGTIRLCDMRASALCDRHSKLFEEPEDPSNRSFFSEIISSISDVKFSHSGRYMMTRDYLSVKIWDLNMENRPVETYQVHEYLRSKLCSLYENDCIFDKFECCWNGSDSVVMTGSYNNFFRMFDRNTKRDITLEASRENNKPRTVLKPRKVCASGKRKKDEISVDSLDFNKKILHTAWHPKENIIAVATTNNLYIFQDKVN
UniProt Q96LA8, whole entry, looked up: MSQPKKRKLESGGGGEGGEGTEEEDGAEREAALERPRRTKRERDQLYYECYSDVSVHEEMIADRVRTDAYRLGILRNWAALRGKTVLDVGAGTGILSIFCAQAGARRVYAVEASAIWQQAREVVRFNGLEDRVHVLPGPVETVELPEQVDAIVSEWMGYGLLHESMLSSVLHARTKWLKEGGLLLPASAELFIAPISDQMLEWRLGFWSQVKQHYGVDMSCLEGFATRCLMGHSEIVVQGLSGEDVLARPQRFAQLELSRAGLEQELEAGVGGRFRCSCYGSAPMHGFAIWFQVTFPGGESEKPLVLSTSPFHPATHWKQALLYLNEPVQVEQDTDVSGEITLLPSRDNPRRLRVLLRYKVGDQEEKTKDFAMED
UniProt P10644, whole entry, looked up: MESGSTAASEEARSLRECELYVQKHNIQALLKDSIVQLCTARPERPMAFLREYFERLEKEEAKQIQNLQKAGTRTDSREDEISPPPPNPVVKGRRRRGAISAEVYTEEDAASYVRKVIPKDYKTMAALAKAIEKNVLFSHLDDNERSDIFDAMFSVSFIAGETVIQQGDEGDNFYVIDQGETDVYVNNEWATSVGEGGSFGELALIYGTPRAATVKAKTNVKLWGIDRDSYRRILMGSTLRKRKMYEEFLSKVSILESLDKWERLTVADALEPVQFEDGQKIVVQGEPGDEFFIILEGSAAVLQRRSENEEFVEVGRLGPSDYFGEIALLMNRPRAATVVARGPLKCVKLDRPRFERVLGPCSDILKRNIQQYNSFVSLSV
UniProt P41236: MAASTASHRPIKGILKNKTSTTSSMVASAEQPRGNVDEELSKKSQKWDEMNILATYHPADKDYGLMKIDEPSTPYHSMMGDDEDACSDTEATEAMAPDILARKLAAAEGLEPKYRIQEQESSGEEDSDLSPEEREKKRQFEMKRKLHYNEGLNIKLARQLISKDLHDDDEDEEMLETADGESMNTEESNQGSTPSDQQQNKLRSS

How the values were obtained:
Experiment in all cases: log2 fold change, soluble protein after heating vs DMSO (PISA); higher = thermal stabilisation; K562 lysate, 10 uM; active = over 0.2 and 3.5 SD of the protein, either way, in both replicates (recomputed)
[1] = compound: C1=CC=C(C=C1)[C@H](COC2=CC3=C(C=C2)NC(=O)N3)NC(=O)C4=CC=CN(C4=O)CC5=CC(=C(C=C5)F)F
How it was run: (§1)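 K562 pellets were dounce-homogenised in PBS pH 7.4 containing 1 mM MgCl2, and the crude extract, at 1 mg/mL protein, was exposed to 10 μM compound for 30 min. Aliquots were heated for 3 min across 48°C-58°C, pooled, brought to 0.5% NP-40 at 4°C and spun at 21,000xg for 90 min, with the supernatant taken as soluble protein. TMTpro 16plex LC-MS/MS with equalised channel sums quantified that protein. Values are log-two fold changes in thermal stability relative to solvent controls, taken from duplicates.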

[2] = compound: CC1=C(SC2=C1C(=N[C@H](C3=NN=C(N32)C)CC(=O)N)C4=CC=C(C=C4)Cl)C
How it was run: as §1

[3] = compound: CC1=C2C(=CC=C1)N=C(N(C2=O)C3=CC=CC=C3C)CN4C=NC5=C(N=CN=C54)N
How it was run: as §1

[4] = compound: Cc1sc2c(c1C)C(c1ccc(Cl)cc1)=N[C@@H](CC(=O)OC(C)(C)C)c1nnc(C)n1-2
How it was run: as §1

[5] = compound: c1ccc([C@@H]2C[C@H]2NC2CCNCC2)cc1
How it was run: as §1

Target | log2 fold change [1] | log2 fold change [2] | log2 fold change [3] | log2 fold change [4] | log2 fold change [5]
PRDX4 (UniProt Q13162) | inactive: 0.014 | inactive: 0 | inactive: 0.007 | inactive: -0.052 | inactive: -0.103
PREPL (UniProt Q4J6C6) | inactive: -0.016 | inactive: -0.006 | inactive: 0.004 | inactive: -0.02 | inactive: 0.004
PROSER2 (UniProt Q86WR7) | inactive: 0.017 | inactive: -0.003 | inactive: -0.008 | inactive: 0.029 | inactive: 0.069
PPP2R1B isoform 2 (UniProt P30154) | inactive: -0.023 | inactive: -0.033 | inactive: -0.022 | inactive: 0.011 | inactive: 0.026
PRKAB2 (UniProt O43741) | inactive: 0.1 | inactive: -0.012 | inactive: 0.009 | inactive: -0.047 | inactive: -0.418
PPP3R1 (UniProt P63098) | inactive: 0.012 | inactive: -0.037 | inactive: -0.032 | inactive: 0.007 | inactive: 0.063
PPP1R21 (UniProt Q6ZMI0) | inactive: -0.003 | inactive: -0.002 | inactive: 0.03 | inactive: 0.051 | inactive: 0.027
PPT1 (UniProt P50897) | inactive: -0.022 | inactive: -0.001 | inactive: -0.017 | inactive: 0.016 | inactive: 0.076
PPP1R7 (UniProt Q15435) | inactive: 0.005 | inactive: -0.008 | inactive: 0.011 | inactive: -0.018 | inactive: 0.031
PPM1A isoform 3 (UniProt P35813) | inactive: 0.015 | inactive: 0 | inactive: -0.104 | inactive: -0.04 | inactive: -0.001
PRMT8 (UniProt Q9NR22) | inactive: -0.016 | inactive: 0.031 | inactive: 0.01 | inactive: -0.041 | inactive: -0.147
PRPF3 (UniProt O43395) | inactive: 0.037 | inactive: 0.039 | inactive: -0.042 | inactive: 0.036 | inactive: 0.084
PRKCD (UniProt Q05655) | inactive: 0.003 | inactive: 0.022 | inactive: 0.028 | inactive: -0.003 | inactive: 0.023
PRKRA (UniProt O75569) | inactive: -0.002 | inactive: 0.027 | inactive: 0.031 | inactive: 0.029 | inactive: 0.036
PPP6R2 isoform 5 (UniProt O75170) | inactive: 0.024 | inactive: 0.058 | inactive: -0.005 | inactive: -0.003 | inactive: -0.032
PPP2R2D (UniProt Q66LE6) | inactive: -0.064 | inactive: 0.034 | inactive: -0.024 | inactive: 0.102 | inactive: 0.056
PRIM1 (UniProt P49642) | inactive: 0.009 | inactive: -0.051 | inactive: -0.018 | inactive: -0.006 | inactive: 0.047
PRKCQ (UniProt Q04759) | inactive: 0.004 | inactive: -0.003 | inactive: 0.066 | inactive: 0.045 | inactive: -0.015
PRMT1 (UniProt Q99873) | inactive: 0.021 | inactive: -0.004 | inactive: 0.016 | inactive: 0.013 | inactive: -0.077
PRPF4 (UniProt O43172) | inactive: 0.016 | inactive: -0.004 | inactive: -0.001 | inactive: 0.034 | inactive: 0.085
PPP1CA (UniProt P62136) | inactive: -0.004 | inactive: 0.02 | inactive: 0.034 | inactive: -0.028 | inactive: 0.007

Target | log2 fold change [1] | log2 fold change [2] | log2 fold change [3] | log2 fold change [4] | log2 fold change [5]
PPM1B (UniProt O75688) | inactive: 0.037 | inactive: 0.032 | inactive: 0.015 | inactive: 0.012 | inactive: -0.045
PPP1R14A (UniProt Q96A00) | inactive: 0.085 | inactive: -0.02 | inactive: 0.013 | inactive: -0.019 | inactive: -0.076
PPM1G (UniProt O15355) | inactive: 0.019 | inactive: -0.001 | inactive: -0.004 | inactive: 0.027 | inactive: 0.017
PRKRIP1 (UniProt Q9H875) | inactive: -0.013 | inactive: 0.008 | inactive: 0.005 | inactive: -0.006 | inactive: 0.016
PPIL3 (UniProt Q9H2H8) | inactive: 0.067 | inactive: -0.012 | inactive: 0.035 | inactive: 0.028 | active: -0.237
PPP2R5C isoform 5 (UniProt Q13362) | inactive: -0.068 | inactive: 0.011 | inactive: -0.02 | inactive: -0.024 | inactive: 0.071
PRMT7 (UniProt Q9NVM4) | inactive: -0.002 | inactive: -0.029 | inactive: 0.009 | inactive: -0.039 | inactive: 0.014
PRKCSH (UniProt K7ELL7) | inactive: 0.045 | inactive: -0.027 | inactive: -0.157 | inactive: -0.112 | inactive: -0.048
PPT2 isoform 3 (UniProt Q9UMR5) | inactive: 0.01 | inactive: -0.03 | inactive: -0.046 | inactive: -0.048 | inactive: -0.08
PRDX1 (UniProt Q06830) | inactive: 0.031 | inactive: -0.019 | inactive: -0.015 | inactive: -0.019 | inactive: -0.067
PRDX2 (UniProt P32119) | inactive: 0.016 | inactive: 0.022 | inactive: -0.033 | inactive: 0.031 | inactive: -0.087
PRIM2 (UniProt P49643) | inactive: 0.004 | inactive: 0.026 | inactive: 0.016 | inactive: 0.009 | inactive: 0.028
PPP2R5D (UniProt Q14738) | inactive: -0.026 | inactive: 0.006 | inactive: 0.024 | inactive: -0.013 | inactive: 0.051
PPP1R35 (UniProt Q8TAP8) | inactive: 0.003 | inactive: -0.016 | inactive: -0.041 | inactive: 0.059 | inactive: -0.052
PREP (UniProt P48147) | inactive: 0.006 | inactive: 0.02 | inactive: 0.013 | inactive: -0.02 | inactive: 0.03
PPP2R2A isoform 2 (UniProt P63151) | inactive: 0.015 | inactive: 0.016 | inactive: 0.019 | inactive: -0.068 | inactive: -0.011
PRMT6 (UniProt Q96LA8) | inactive: 0.04 | inactive: -0.03 | inactive: -0.01 | inactive: -0.014 | inactive: 0.014
PRKAR1A (UniProt P10644) | inactive: 0.022 | inactive: -0.028 | inactive: -0.012 | inactive: 0.067 | inactive: 0.006
PPP1R2 (UniProt P41236) | inactive: 0.023 | inactive: 0.023 | inactive: -0.031 | inactive: 0.008 | inactive: -0.006
PRKAR2B (UniProt P31323) | inactive: -0.028 | inactive: 0.018 | inactive: 0.011 | inactive: -0.002 | inactive: 0.068

Three entries drawn at random from the list so far, as already listed:
Target | log2 fold change [1] | log2 fold change [2] | log2 fold change [3] | log2 fold change [4] | log2 fold change [5]
PRKCSH (UniProt K7ELL7) | inactive: 0.045 | inactive: -0.027 | inactive: -0.157 | inactive: -0.112 | inactive: -0.048
PRKCQ (UniProt Q04759) | inactive: 0.004 | inactive: -0.003 | inactive: 0.066 | inactive: 0.045 | inactive: -0.015
PRIM2 (UniProt P49643) | inactive: 0.004 | inactive: 0.026 | inactive: 0.016 | inactive: 0.009 | inactive: 0.028
